# Measurements published in patent publication US5380668A (University of Utah Research Foundation, priority 1993, dated 1995).
# Assay: general procedure: Fmoc solid-phase peptide synthesis
# Settings: whole synthesis, reversed phase HPLC
substance,measurement,value
H2 N-Gly-Gly-Arg-Leu-Pro-Gly-Pro-Ser-Asp-Cys-Gly-COOH (GGRLPGPSDCG),final purity (method not given),>98%
